Data on 3 molecules can be found in paper PMC8406308.

These are yes or no findings as the source states them, for the method shown. For some assays here: Binding calls can cover weak binding; strength is not graded here. For some assays here: Where a sequence is shown, tags or fusion partners need not be part of it. For some assays here: Binding seen in cells or lysates may run through a third protein.

The target of assay [1] is T1, endogenous API5 (apoptosis inhibitor 5) of DF-1 cells (chicken (endogenous in DF-1)) (UniProt Q5ZMW3).
T1 sequence: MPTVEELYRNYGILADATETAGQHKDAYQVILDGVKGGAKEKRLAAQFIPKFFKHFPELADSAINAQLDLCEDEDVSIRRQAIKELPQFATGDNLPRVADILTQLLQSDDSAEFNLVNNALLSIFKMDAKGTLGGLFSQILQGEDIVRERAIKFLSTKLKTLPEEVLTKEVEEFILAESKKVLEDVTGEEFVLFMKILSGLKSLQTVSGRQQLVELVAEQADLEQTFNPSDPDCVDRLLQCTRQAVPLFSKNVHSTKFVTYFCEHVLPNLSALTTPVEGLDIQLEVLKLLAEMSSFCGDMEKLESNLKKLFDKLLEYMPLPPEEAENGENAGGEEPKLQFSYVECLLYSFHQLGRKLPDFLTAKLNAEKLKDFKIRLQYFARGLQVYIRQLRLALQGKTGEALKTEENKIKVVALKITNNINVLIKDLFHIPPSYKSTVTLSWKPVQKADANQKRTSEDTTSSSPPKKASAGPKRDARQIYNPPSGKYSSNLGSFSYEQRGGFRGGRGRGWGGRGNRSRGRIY
As to the kind of experiment: co-IP; DF-1 cells infected with IBDV for 12 h; lysates precipitated with anti-API5 or anti-VP3 mouse MAb; Western blot. (A western blot detects proteins with antibodies after separation by electrophoresis.)

The target in assay [2] is T2, Flag-API5 (apoptosis inhibitor 5) (Gallus (chicken)) (UniProt Q5ZMW3).
T2 sequence: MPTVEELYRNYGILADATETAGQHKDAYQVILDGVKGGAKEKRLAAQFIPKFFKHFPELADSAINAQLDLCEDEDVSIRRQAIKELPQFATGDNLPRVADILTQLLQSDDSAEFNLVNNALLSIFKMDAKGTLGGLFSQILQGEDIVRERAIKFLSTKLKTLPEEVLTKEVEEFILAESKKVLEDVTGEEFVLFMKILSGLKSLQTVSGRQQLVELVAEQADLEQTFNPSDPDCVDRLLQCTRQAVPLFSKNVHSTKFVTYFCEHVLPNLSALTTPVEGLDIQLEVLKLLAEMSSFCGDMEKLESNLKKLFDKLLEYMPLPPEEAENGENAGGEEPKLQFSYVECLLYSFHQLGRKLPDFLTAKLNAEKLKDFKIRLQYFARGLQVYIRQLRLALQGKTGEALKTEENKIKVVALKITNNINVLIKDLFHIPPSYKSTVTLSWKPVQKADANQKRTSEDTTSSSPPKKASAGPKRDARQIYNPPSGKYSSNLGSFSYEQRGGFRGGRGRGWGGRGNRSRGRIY
Put plainly: co-IP; HEK293T cells cotransfected for 48 h, lysed in NP-40 buffer; precipitated with anti-Flag, anti-Myc or anti-GFP mouse MAb and protein A/G agarose at 4°C; Western blot.

The target of a further assay is T3, Flag-SENP1 (UniProt Q9P0U3).
T3 sequence: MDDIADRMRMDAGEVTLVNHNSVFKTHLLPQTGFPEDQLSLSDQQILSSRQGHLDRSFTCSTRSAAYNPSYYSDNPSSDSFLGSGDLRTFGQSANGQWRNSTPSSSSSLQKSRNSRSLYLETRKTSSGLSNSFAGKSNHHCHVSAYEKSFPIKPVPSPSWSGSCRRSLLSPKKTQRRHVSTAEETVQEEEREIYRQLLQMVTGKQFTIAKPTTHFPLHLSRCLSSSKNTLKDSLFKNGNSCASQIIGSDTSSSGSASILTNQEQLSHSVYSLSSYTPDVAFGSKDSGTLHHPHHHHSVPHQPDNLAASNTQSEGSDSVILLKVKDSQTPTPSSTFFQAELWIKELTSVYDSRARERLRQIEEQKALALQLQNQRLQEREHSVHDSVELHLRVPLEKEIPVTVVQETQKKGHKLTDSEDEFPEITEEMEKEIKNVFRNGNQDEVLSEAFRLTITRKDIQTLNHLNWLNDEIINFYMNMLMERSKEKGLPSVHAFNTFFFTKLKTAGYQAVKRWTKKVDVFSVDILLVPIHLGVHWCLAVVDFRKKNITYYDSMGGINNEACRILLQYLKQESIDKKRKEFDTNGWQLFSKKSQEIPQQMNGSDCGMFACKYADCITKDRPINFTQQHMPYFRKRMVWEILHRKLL
The assay is described as above.

For the next assay, the target named is T4, Flag-SENP2 (human) (UniProt Q9HC62).
T4 sequence: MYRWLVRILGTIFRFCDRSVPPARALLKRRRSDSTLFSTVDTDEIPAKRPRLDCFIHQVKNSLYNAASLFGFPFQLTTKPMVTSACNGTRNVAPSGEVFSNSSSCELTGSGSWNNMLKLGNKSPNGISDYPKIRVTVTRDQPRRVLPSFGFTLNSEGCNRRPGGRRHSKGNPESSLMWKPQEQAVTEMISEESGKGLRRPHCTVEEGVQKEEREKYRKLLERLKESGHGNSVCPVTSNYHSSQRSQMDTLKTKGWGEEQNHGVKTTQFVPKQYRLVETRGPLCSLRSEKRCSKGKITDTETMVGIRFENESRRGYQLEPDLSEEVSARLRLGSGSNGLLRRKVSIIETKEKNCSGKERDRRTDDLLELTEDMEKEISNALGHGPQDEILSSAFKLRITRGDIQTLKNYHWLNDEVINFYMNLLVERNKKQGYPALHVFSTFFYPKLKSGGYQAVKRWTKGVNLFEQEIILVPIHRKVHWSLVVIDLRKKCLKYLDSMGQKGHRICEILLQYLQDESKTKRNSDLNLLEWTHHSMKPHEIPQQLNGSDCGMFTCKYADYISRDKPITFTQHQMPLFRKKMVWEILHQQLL
The assay is described as above.

In assay [3] the target is GST-VP3 (infectious bursal disease virus (IBDV)). Put plainly: pull-down; purified GST-VP3 incubated with His-API5 or SUMO3-API5 for 4 h at 4°C, then GST resin; washed five times with NP-40 buffer; Western blot; both purified.

In the case of “Avibirnavirus infectious bursal disease virus (IBDV) viral protein VP3, from infection”, in assay [1], the binding result is on record as “binds”. Turning to “Myc-VP3 (infectious bursal disease virus (IBDV))”, the binding result in assay [2] is “binds”; with Flag-SENP1, “no binding”; with Flag-SENP2 (human) it was “no binding”.

B1: His-API5 (protein, UniProt Q5ZMW3 1-523)
chain: MPTVEELYRNYGILADATETAGQHKDAYQVILDGVKGGAKEKRLAAQFIPKFFKHFPELADSAINAQLDLCEDEDVSIRRQAIKELPQFATGDNLPRVADILTQLLQSDDSAEFNLVNNALLSIFKMDAKGTLGGLFSQILQGEDIVRERAIKFLSTKLKTLPEEVLTKEVEEFILAESKKVLEDVTGEEFVLFMKILSGLKSLQTVSGRQQLVELVAEQADLEQTFNPSDPDCVDRLLQCTRQAVPLFSKNVHSTKFVTYFCEHVLPNLSALTTPVEGLDIQLEVLKLLAEMSSFCGDMEKLESNLKKLFDKLLEYMPLPPEEAENGENAGGEEPKLQFSYVECLLYSFHQLGRKLPDFLTAKLNAEKLKDFKIRLQYFARGLQVYIRQLRLALQGKTGEALKTEENKIKVVALKITNNINVLIKDLFHIPPSYKSTVTLSWKPVQKADANQKRTSEDTTSSSPPKKASAGPKRDARQIYNPPSGKYSSNLGSFSYEQRGGFRGGRGRGWGGRGNRSRGRIY
As for B1, the binding entry in assay [3] is on record as “binds”.
